Test results taken from publication PMC12862363, “AURKB-driven dissolution of CIZ1–RNA assemblies from the inactive X chromosome in mitosis” (Nucleic Acids Research, 2026).
Tags and fusion partners may be left off the protein sequences shown.

Columns and labels:
[1] = molecular target: T1, C179Δtail del861-898 (Homo sapiens) (UniProt Q9ULV3); experiment: EMSA; details: 0.66 nM RNA, yeast tRNA 0.1 mg/ml; 10 mM Tris-HCl pH 7, 30 mM NaCl, 2.5 mM MgCl2, 0.1% IGEPAL CA-630, 0.1 mg/ml yeast tRNA, 1.5% RNaseOUT, 0.2 mM EDTA, 0.2 mM DTT, 30 C 20 min; 0.8% agarose/TBE at 4 C; recombinant protein; residues 720-860; protein details: N-terminal GST removed with PreScission protease; label: digoxigenin (DIG-11-UTP, internal); probe letters rebuilt from the primers and the genome; counted as no binding
T1 sequence (looked up): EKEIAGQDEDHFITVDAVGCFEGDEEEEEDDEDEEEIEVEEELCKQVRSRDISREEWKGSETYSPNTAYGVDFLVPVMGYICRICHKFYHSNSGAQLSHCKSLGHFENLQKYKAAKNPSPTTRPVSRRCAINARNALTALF

[2] = molecular target: T2, C179DDD S893D,T894D,T898D (Homo sapiens) (UniProt Q9ULV3); experiment: EMSA; details: 0.66 nM RNA, yeast tRNA 0.1 mg/ml; 10 mM Tris-HCl pH 7, 30 mM NaCl, 2.5 mM MgCl2, 0.1% IGEPAL CA-630, 0.1 mg/ml yeast tRNA, 1.5% RNaseOUT, 0.2 mM EDTA, 0.2 mM DTT, 30 C 20 min; 0.8% agarose/TBE at 4 C; recombinant protein; protein details: N-terminal GST removed with PreScission protease; label: digoxigenin (DIG-11-UTP, internal); probe letters rebuilt from the primers and the genome
T2 sequence (looked up, limits assumed): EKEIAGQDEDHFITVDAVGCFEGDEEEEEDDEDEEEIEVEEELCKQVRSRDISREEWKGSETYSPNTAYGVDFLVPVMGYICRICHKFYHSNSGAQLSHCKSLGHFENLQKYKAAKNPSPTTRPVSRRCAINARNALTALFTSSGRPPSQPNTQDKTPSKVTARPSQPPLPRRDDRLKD

GGGAGCACUAGCUAUGGCUCUCUGUUUUAUCUAUCUGGUUGCUAUUUCUCUUAGCUUUUCUUUCACUCCUGCCUUUCGUGACUCCCCUUUGGGUCACAUGUUGCAUGCAUCCCUCUCUUUUUCUUGUGCUCACCCCACUUGUUCUUUGUUCAAGUUCUCUUUGUCAGUCCAUUUCAGUUUUCUUUCUGCUGCUUCUAUCCUUAGUGAAUUCUUGUUUACAUUUCUUCCCUGCCUUUCUUGGGCCACUUUCUCUGUUUUCUUUUGUAUUUGUGUCUCUUUGCUAUUGGUGGAUUUCUUAUCUCAGCAUCAUUCUGUUGCUUUGUGUUUGCUUGUGUUUCUAUCUUCUACUUUCCUCCUUUCUGUUCACUUUGAGCAUUUCAUCUCUUUACAAGUCUGUGUCUCUCUUGUAUUCUAAAGUAAUCCUUUCUUGGAUGUUUCUUUGUAUGUACAUGUGCGUGUGUGCAUGUGUGUUAUGUG [Xist repeat E RNA probe]
binding signal (% probe shifted at 5 µM protein) [1]: 2
binding signal (% probe shifted at 5 µM protein) [2]: 54
